# Assay results

The results are deposited in PubChem (AID1159506; NCATS, 2015).

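Genome-wide siRNA knockdown in TC32 Ewing sarcoma cells, comparing luciferase light from an NR0B1-promoter reporter with a CMV-promoter reporter 48 hours after transfection.
Each siRNA was applied at 20 nM.
A z-score of the log NR0B1-over-CMV signal, less the median of siRNAs with the same seed; more negative means a stronger specific loss of the NR0B1 reporter.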

The strongest results of the screen are mostly left out here.
Sequences are the guide (antisense) strand, without overhang.

Sequence: AUGAUAAAAUCUGUUGUGC
target gene: C9orf78
seed-corrected z-score: 0.4139

Sequence: UGAUUGUCACAGUAGAACC
target gene: CLC
seed-corrected z-score: 0.03702

Sequence: UUCCUUUUUAGAGAGUUCC
target gene: TXNDC5
seed-corrected z-score: -0.1009

Sequence: UCAUAAGCAAGAAUCCUCC
target gene: KLHL38
seed-corrected z-score: -1.033

Sequence: UCAAUGAACUGGUCGCAGC
target gene: ABLIM2
seed-corrected z-score: 0.536

Sequence: AAACUUGCGUUUGAAGUCC
target gene: ABHD4
seed-corrected z-score: -1.088

Sequence: AUAGGUCCUACAUAGUAAG
target gene: PROL1
seed-corrected z-score: 0.8666

Sequence: UGUCUGCUCAGGAUUCCCU
target gene: VTN
seed-corrected z-score: -0.7977

Sequence: UGUGCAUCAGGACUCUGGC
target gene: GPR31
seed-corrected z-score: -0.05696

Sequence: AUUUUCAACAGAACAGUUC
target gene: TMEM255A
seed-corrected z-score: 3.02

Sequence: AACCUUAUUUCAUCUGCGG
target gene: PTPRQ
seed-corrected z-score: -1.157

Sequence: UUCUGCCUCGGAGUAGUUG
target gene: EPN3
seed-corrected z-score: -1.643

Sequence: UUUAGGACUGGAUUGUUUC
target gene: C2orf61
seed-corrected z-score: 0.4599

Sequence: UAUUAGAUCCUGGUUGUAC
target gene: MTFR2
seed-corrected z-score: -0.08212

Sequence: AUCGGGCACGAAGUAGUGG
target gene: FIBIN
seed-corrected z-score: -1.993

Sequence: AAAGUUGGAGAAGACAUUG
target gene: MYL5
seed-corrected z-score: 0.7956

Sequence: UUUGCCGUUACUAACAGGG
target gene: NABP2
seed-corrected z-score: -0.4132

Sequence: AAAGAAUUCACAACUGAGG
target gene: NUDT15
seed-corrected z-score: -1.334

Sequence: AGAAUAUAAACCUUGACUG
target gene: KCNJ1
seed-corrected z-score: -1.079

Sequence: UCAGACUUCGGACUAGUAC
target gene: EXOC6B
seed-corrected z-score: -0.1947

Sequence: UAUGAUGUCCGCAAUAAGC
target gene: CNGB3
seed-corrected z-score: 0.04103

Sequence: UAGCCGCUCAGCAUAUUCC
target gene: RRNAD1
seed-corrected z-score: -0.01664

Sequence: UAUUGCUAACUCUUCAAUC
target gene: RUFY2
seed-corrected z-score: 1.402

Sequence: AGCGUGAACACUAUAGUCC
target gene: CNPY4
seed-corrected z-score: 0.6404

Sequence: AACCGUAUUAGGAGAGCUG
target gene: TRAPPC8
seed-corrected z-score: 0.3869

Sequence: UGAUGUUGAGCAGCGAUAC
target gene: CHD5
seed-corrected z-score: 0.116

Sequence: UUCUCGUCAGGAAAGCGGC
target gene: PPIF
seed-corrected z-score: -0.4909

Sequence: AUAAUGGGACUUGAUGUCU
target gene: CIB1
seed-corrected z-score: -0.4873

Sequence: UCUGUAUCGAUUUCGCCUC
target gene: FMN2
seed-corrected z-score: -0.5049

Sequence: UGGCAGGUAAGUGAAUGUG
target gene: UQCRHP2
seed-corrected z-score: 0.9957

Sequence: ACAGCUCUUAGAAUGAAGG
target gene: OR56A1
seed-corrected z-score: 0.3752

Sequence: UCUUUCUGUACUGUAGUUC
target gene: LOC728024
seed-corrected z-score: -0.8299

Sequence: AUCCUUAAAGCACCUACGU
target gene: SHOX2
seed-corrected z-score: 0.1528

Sequence: AAGUUUGAGAGGCACAGGC
target gene: LINC01346
seed-corrected z-score: 0.4717

Sequence: UGUCCUGUCAGCGUGUUCC
target gene: FZR1
seed-corrected z-score: -0.2232

Sequence: AUGCUUUCAAGACAUCUUC
target gene: MIS18A
seed-corrected z-score: 0.04694

Sequence: UUGCCCUUGAGAUUAAACU
target gene: ZNF710
seed-corrected z-score: -0.2634

Sequence: UUCUCUUCCACCCAAUCUC
target gene: FOXD2
seed-corrected z-score: -0.9385

Sequence: AUAGUUGAAUCGAUCAUUC
target gene: TTBK2
seed-corrected z-score: 0.3773

Sequence: UCACUUGCAUGGGCAUUGG
target gene: ITIH6
seed-corrected z-score: -0.8843

Sequence: AAAGCAACUUCUAAUAACC
target gene: SFT2D3
seed-corrected z-score: 0.5073

For reference, 2 entries once more:

Sequence,target gene,seed-corrected z-score
AAAGAAUUCACAACUGAGG,NUDT15,-1.334
AAGUUUGAGAGGCACAGGC,LINC01346,0.4717